Binding data for 2 substances are collected here from publication PMC3036620.

Amino acid sequences for entries named in this document (tags omitted). Residues count along the entry.
UniProt P70336: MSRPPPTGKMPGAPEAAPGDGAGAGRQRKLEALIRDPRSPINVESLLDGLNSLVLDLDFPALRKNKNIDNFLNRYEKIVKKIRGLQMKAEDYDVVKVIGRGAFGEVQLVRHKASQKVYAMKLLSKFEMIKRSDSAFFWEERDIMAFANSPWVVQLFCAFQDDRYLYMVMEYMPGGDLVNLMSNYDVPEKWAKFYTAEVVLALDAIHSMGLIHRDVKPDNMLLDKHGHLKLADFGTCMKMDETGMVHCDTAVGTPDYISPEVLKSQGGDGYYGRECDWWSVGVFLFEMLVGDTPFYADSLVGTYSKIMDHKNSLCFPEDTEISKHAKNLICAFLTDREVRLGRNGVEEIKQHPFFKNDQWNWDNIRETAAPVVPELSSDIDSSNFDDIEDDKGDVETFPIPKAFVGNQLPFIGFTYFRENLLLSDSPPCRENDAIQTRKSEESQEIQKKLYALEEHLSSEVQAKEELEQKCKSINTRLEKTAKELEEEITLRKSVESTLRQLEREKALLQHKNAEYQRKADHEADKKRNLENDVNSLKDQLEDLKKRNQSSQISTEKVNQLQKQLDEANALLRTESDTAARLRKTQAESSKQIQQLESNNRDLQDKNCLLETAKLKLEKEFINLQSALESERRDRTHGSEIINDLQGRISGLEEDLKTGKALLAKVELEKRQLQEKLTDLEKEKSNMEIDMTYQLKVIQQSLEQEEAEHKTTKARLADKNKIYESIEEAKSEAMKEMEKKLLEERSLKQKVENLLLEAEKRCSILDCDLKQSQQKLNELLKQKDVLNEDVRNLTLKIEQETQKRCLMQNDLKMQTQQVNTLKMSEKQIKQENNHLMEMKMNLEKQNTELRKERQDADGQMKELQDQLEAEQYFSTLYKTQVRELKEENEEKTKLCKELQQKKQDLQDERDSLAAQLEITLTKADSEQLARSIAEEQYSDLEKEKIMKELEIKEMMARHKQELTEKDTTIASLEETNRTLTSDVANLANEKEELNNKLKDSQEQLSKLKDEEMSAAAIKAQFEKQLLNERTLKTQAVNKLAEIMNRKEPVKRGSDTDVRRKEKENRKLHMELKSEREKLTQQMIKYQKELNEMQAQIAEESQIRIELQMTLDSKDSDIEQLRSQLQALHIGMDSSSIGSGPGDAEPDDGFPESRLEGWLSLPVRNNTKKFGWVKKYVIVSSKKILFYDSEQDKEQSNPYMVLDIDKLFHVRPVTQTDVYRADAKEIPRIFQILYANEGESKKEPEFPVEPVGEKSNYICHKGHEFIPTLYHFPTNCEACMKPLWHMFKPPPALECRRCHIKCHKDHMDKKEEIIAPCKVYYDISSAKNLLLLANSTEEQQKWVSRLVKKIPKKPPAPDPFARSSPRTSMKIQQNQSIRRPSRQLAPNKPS
UniProt O88307, residues 82-2215: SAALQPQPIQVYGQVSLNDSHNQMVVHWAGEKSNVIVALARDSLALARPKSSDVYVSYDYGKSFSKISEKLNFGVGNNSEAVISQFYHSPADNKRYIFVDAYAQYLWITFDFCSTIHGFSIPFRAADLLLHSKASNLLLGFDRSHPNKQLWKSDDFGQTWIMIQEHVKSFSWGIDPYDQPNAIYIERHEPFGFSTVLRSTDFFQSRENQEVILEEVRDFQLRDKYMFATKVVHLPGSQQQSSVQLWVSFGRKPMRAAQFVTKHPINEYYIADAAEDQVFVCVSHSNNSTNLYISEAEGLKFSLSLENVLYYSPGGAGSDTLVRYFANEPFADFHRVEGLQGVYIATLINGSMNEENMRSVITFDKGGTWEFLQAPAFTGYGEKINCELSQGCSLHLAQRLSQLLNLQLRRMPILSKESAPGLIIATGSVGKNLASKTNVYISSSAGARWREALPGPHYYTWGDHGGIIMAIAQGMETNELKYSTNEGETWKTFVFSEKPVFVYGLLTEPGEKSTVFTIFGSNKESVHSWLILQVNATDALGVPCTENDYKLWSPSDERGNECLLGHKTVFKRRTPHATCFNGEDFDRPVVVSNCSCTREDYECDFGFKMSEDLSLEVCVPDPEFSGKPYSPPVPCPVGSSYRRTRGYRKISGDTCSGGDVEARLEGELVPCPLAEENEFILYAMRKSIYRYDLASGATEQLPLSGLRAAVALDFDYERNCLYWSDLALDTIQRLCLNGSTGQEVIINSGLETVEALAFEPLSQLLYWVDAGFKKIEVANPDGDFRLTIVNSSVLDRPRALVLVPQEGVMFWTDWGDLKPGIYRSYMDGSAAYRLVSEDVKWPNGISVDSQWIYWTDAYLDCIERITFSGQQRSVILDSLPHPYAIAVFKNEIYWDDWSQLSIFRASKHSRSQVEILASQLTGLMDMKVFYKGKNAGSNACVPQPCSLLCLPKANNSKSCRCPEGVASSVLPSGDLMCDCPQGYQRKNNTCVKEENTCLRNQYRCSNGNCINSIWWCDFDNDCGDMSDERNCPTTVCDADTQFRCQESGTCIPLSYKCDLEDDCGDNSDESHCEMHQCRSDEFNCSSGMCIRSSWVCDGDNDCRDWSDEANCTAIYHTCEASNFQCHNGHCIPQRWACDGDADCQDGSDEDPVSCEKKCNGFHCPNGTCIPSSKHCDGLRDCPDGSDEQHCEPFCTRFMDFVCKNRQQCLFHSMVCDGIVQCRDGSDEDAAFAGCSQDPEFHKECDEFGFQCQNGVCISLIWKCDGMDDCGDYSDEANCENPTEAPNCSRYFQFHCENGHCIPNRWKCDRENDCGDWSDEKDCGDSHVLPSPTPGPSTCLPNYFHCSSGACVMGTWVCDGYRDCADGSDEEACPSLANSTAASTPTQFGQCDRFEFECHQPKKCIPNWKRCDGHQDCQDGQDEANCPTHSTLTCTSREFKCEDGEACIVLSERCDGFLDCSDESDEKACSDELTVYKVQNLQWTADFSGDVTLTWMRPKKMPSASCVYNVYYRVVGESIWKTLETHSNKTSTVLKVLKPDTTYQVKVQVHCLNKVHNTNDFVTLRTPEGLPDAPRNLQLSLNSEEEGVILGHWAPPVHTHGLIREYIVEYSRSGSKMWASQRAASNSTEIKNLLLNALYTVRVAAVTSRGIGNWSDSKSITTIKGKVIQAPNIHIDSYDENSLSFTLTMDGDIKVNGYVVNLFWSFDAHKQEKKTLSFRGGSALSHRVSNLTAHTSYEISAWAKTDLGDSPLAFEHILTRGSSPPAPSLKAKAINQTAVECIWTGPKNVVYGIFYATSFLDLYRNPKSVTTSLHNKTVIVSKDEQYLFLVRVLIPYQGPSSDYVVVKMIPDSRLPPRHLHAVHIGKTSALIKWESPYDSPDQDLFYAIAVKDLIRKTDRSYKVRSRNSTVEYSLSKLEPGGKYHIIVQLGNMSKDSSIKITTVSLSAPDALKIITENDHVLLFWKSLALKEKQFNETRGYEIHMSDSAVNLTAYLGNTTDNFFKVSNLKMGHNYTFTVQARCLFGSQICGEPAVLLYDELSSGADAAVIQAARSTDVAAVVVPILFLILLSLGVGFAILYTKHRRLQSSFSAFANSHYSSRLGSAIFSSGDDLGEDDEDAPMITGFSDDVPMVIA

Results are given in words; binding and its absence hold for the method and conditions named. In cells and extracts the contact can be indirect. Some results given as binding are weak or reduced against the parent protein; the word gives no strength.

The target in assay [1] is rho activated coiled coil protein kinase 2 (ROCK2) (mouse (endogenous in MEFs)) (UniProt P70336). The assay can be described thus: co-IP; 300 ug wild type MEF lysate in RIPA buffer; 2 ug anti-SorL1 or anti-ROCK2 antibody or control IgG on protein A/G plus agarose beads; immunoblot for the other protein; endogenous proteins. A general note: In western blotting, separated proteins are transferred to a membrane and probed.

Assay [2] concerns the target SorL1 (mouse (endogenous in MEFs)) (UniProt O88307). The description is as above.

Consider SorL1 (from UniProt O88307 82-2215), for which the binding entry in assay [1] is listed as “binds”.
“rho activated coiled coil protein kinase 2 (ROCK2) (from UniProt P70336 1-1388) (enzyme)”: the binding entry in assay [2] is “binds”.
